# These are yes or no findings as the source states them, for the method shown.
# Biological target: RNase J1 C-terminal domain deletion construct (RNase J1ΔCTD, residues 1-450) (Staphylococcus epidermidis) (UniProt Q5HQ80)
# Test: SEC; analytical Superdex200; 250 μg of each freshly purified enzyme injected separately; 50 mM Tris-HCl pH 8.0, 250 mM NaCl, 10% glycerol, 4 mM β-ME, 0.5 mM TCEP, 5 mM MgCl2; both purified
substance,measurement,value
"RNase J1 C-terminal domain deletion construct (RNase J1ΔCTD, residues 1-450) (from UniProt Q5HQ80 1-450) (domain or fragment)",binding,no binding (tested: 250 μg injected)
